Test results from PubChem BioAssay AID540256 (National Center for Advancing Translational Sciences (NCATS), 2011).
In all, about 300,000 compounds went through this assay and about 3,700 (1.2%) were called active. The shares of active, inactive and inconclusive entries below differ from those in the screen. Calls follow the shape of the full dose curve; tested in HEK293 cells. Potencies of inconclusive entries are doubtful fits and often do not repeat.

Assay: qHTS for Inhibitors of binding or entry into cells for Lassa Virus; also: nearly all actives have a fitted effect of over 50% in size
Conditions: Lassa virus pseudotype entry inhibition, cell reporter; series mostly up to 37.9 µM
Potency is read from the fitted curve at half-maximal effect.

| SMILES | Potency |
| --- | --- |
| Fc1ccc(-c2nc(Nc3cccc(C(F)(F)F)c3)nc3c2COc2ccccc2-3)cc1 | inconclusive: 2.51 µM [inhibitor, full curve, poor fit] |
| COc1ccc(-n2c(SCC(=O)NCc3ccc(C)cc3)nc3n[nH]c(C)c3c2=N)cc1 | inactive |
| CC(C)NC(=O)NC(=O)CSc1ccc(S(=O)(=O)N2CCCC2)cn1 | inconclusive: 12.6 µM [activator, partial curve, poor fit] |
| COc1ccccc1NCCC#N | inconclusive: 1.16 µM [activator, single point] |
| COC(=O)C1=C(C)Nc2nc3ccccc3n2C1c1cc(OC)c(OC)c(OC)c1 (stereo not drawn) | inconclusive: 2 µM [inhibitor, full curve, poor fit] |
| Cc1ncc(CO)c(/C=N/NC(=O)c2cc3c(s2)CCCC3)c1O | inconclusive: 2.59 µM [inhibitor, full curve] |
| O=C(Nc1ccc2c(c1)OCO2)OCc1ccccc1 | inconclusive: 20.6 µM [inhibitor, single point] |
| CCOc1ccc(NC(=O)NC(C)CC)cc1 (stereo not drawn) | inactive |
| COc1ccc(C2C=C(c3ccc(Cl)c(Cl)c3)Nc3ncnn32)cc1 (stereo not drawn) | inactive |
| COc1ccc(OC)c(S(=O)(=O)Nc2ccccc2C(=O)N2CCCCC2)c1 | inconclusive: 28.2 µM [activator, single point] |
| COc1cc(OC)c(NS(=O)(=O)c2ccc3oc(=O)c4ncn(C)c4c3c2)cc1Cl | inconclusive: 6.31 µM [activator, single point] |
| COc1ccc(OC)c(NC(=O)CN(Cc2ccc(F)cc2)C2CCCCC2)c1 | inconclusive: 11.6 µM [inhibitor, partial curve] |
| COc1ccccc1-c1ccc(SCC(=O)NCCc2ccccc2)nn1 | inconclusive: 0.794 µM [inhibitor, single point] |
| COc1ccccc1NS(=O)(=O)c1ccc(N/N=C/c2c(C)nn(-c3ccccc3)c2N2CCCC2)c([N+](=O)[O-])c1 | inconclusive: 17.8 µM [inhibitor, single point] |
| CCN(c1ccccc1)S(=O)(=O)c1ccc(C(=O)Nc2nnc(C3CC3)o2)cc1 | inconclusive: 8.91 µM [inhibitor, partial curve, poor fit] |
| CC(CNS(=O)(=O)c1ccccc1)Sc1ncccn1 (stereo not drawn) | inconclusive: 0.164 µM [inhibitor, full curve, poor fit] |
| Cc1ccc(C(=O)NCCNc2nc3cc(C)c(C)cc3cc2C)cc1 | inconclusive: 35.5 µM [inhibitor, single point] |
| COCC1CCN(Cc2nc(-c3ccc4c(c3)OCO4)no2)C1 (stereo not drawn) | inactive |

Grouped by structure: those above containing fluorine

| SMILES | Potency |
| --- | --- |
| Fc1ccc(-c2nc(Nc3cccc(C(F)(F)F)c3)nc3c2COc2ccccc2-3)cc1 | inconclusive: 2.51 µM [inhibitor, full curve, poor fit] |
| COc1ccc(OC)c(NC(=O)CN(Cc2ccc(F)cc2)C2CCCCC2)c1 | inconclusive: 11.6 µM [inhibitor, partial curve] |
